# Percent effect of library compounds

The filed quantity is “Percent Effect” (%).
The record does not define 0% and 100%; most values in the screen are far below 50% and negative numbers occur (in some assays of this library far below -100).
The compounds are a random part of those screened.

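Phenotypic screen: M. tuberculosis growth, cholesterol and DPPC medium, 4 days; the read-out is not stated. Concentration: 500 µM. Higher reads as more growth inhibition (inferred: compounds with an IC50 in retests scored well above the rest). Of about 18,000 compounds tested this way, about 900 (5%) reached 50% or more in at least one test.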

Compound,Percent Effect
Cc1cc(C(=O)N(C)CCNS(C)(=O)=O)c(C)o1,4.167%
CC(C)NC(=O)C(C)Oc1ccc(S(N)(=O)=O)cc1 (stereo not given),3.465%
COc1ccc2[nH]c(CCCO)nc2c1,-4.395%
Cc1cscc1C(=O)NCCc1cncn1C,-3.284%
COc1ccc(CCC(=O)NCCNC(C)=O)cc1,-19.75%
Cc1ccc(C(CN)N2CCOCC2)o1 (stereo not given),1.961%
Clc1cccnc1N1CCNCC1,-14.81%
CC(C)[C@H]1CN(C(=O)c2ccoc2)C[C@@H]1N,-6.225%
CC(=O)N1CCCC(C(=O)NCCc2nnc(C)s2)C1 (stereo not given),-0.09785%
Cc1ccc(NC(=O)CCN2CCN(C)CC2)cc1C,10.72%
CCC(NC(=O)CNC(C)=O)c1ncnn1CC (stereo not given),-6.398%
O=C1NCCN(CCn2cncn2)C1c1cccs1 (stereo not given),-19.59%
NCc1ccc(NC(=O)CCN2CCCC2)cc1,-4.5%
COCCNC(=O)CN1CCC2(CC1)OCCO2,5.385%
COCCN(C)CCNC(=O)c1cc2ccccc2[nH]1,66.79%
Cc1ccc(C(=O)N[C@@H]2CN(C)C[C@H]2CN(C)C)s1,16.52%
CN(C(=O)CSc1ccccc1Cl)C1CCS(=O)(=O)C1 (stereo not given),8.57%
O=C(CCN1CCC(C(F)(F)F)CC1)N1CCOCC1,-12.21%
CN1CCC(NCCN(C)S(C)(=O)=O)CC1,10.52%
CCN(CCO)c1ncnc2onc(C)c12,-3.497%
CC(C)CC(=O)NCCc1ccc(S(N)(=O)=O)s1,-16.52%
O=C(NCCCc1ccccc1)C1CNCCO1 (stereo not given),2.675%
Cc1ccc(C(C)NC(=O)CN2CCNC(=O)C2)cn1 (stereo not given),-5.034%
CCC(C(=O)Nc1cc2c(cc1C)OCO2)N(C)C (stereo not given),6.99%
CCS(=O)(=O)CC(=O)Nc1cccc(C(F)(F)F)c1,-10.6%
CCn1cc(CNC(=O)c2cccnc2SC)c(C)n1,10.42%
O=C(c1ccc[nH]1)N1CCC(Nc2cccnc2)CC1,-1.061%
CC(C)N(C)Cc1nc(C2CCOC2)no1 (stereo not given),-7.078%
Cc1nc2ccc(C(=O)N[C@H]3CC[C@H]3N)cc2nc1C,-8.948%
COc1ccc(CNS(=O)(=O)c2c(N)noc2C)cc1,7.897%
CCCc1n[nH]cc1C(=O)N1CC[C@](C)(O)C(C)(C)C1,7.647%
CN1CCC(N(C)CC(O)COc2ccccc2)CC1 (stereo not given),-6.467%
CC(C)c1cc(C(=O)N2CC[C@@H](N)C2)nn1C(C)(C)C,20.36%
CC(C)OCC1CNCCO1 (stereo not given),-1.945%
C1COCCN(C2CCNCC2)C1,-3.006%
OCCOC1CCCNC1 (stereo not given),3.679%
NCC(CO)Cc1ccncc1Cl (stereo not given),-7.791%
CC1(O)CCN(C(=O)NC(C)(C)C)C1 (stereo not given),7.328%
CS(=O)(=O)N1CCC(NCCSc2cnn[nH]2)CC1,61.06%
COCCCNC(=O)Nc1cnn(C)c1,-6.337%
NC1CCN(CC2CC2)C1 (stereo not given),16.02%
CCN(C(=O)CSc1nncs1)C1CCS(=O)(=O)C1 (stereo not given),5.199%
CS(=O)(=O)CCCNc1ccc2c(c1)C(=O)CCC2,26.75%
CNC(=O)c1cccc(NCc2cccnc2)n1,10.7%
CCN(CC)C(=O)COc1ccc(C(C)=O)c(F)c1,37.75%
CCC1(CO)CCCN(CC(=O)Nc2ccn(C)n2)C1 (stereo not given),-11.77%
COc1ccc(NC(=O)Cn2ccnc2)c(OC)c1,8.343%
CCSCCN1CCN(C(=O)c2cccc(O)c2)CC1,3.84%
O=C(CN1CCC=C(F)C1)Nc1cccc(F)c1,53.18%
N#Cc1ccc2c(c1)CCCC2N (stereo not given),27.98%
c1ccc(CN2CCN(CCC3OCCO3)CC2)nc1,-6.708%
COCCNC(=O)C1CC(c2ccc(Cl)c(Cl)c2)=NO1 (stereo not given),0.2661%
Cn1ncnc1CNC(=O)NCc1cc(F)cc(F)c1,-7.866%
CCN(CCN(C)C)C(=O)c1cn(CCN)nn1,-2.794%
NCc1nc(-c2ccc(Cl)cc2)c[nH]1,29.08%
CCCN1CCC(NS(=O)(=O)N(CC)CC)CC1,-3.563%
Cc1cnc(C#N)cc1Cl,2.127%
c1cc2c(cc1CN1CCNCC1)OCCO2,10.5%
CCS(=O)(=O)N1CCC(C(=O)NC(C)COC)CC1 (stereo not given),2.192%
CC(=O)Nc1nc(COc2ccccc2C(N)=O)cs1,-6.671%
CS(=O)(=O)Cc1ccccc1NCc1ccsc1,67.35%
Cc1ccc(NC(=O)NCC(=O)N(C)C)cc1,2.874%
COc1cc(S(=O)(=O)n2cccn2)c(OC)cc1Br,-4.57%
CC(C)CNc1ccc2nncn2n1,-7.898%
CCNC(=O)N1CCC(C(=O)c2ccc(O)cc2)CC1,20.29%
NC(=O)Nc1cccc(C(=O)NCC2CCCCO2)c1 (stereo not given),9.301%
CN(CC(=O)Nc1ccccc1F)CC(=O)N(C)C,-3.507%
c1ccc(Cn2cnc(C3COCCN3)n2)cc1 (stereo not given),8.476%
CNCc1ncc(C)c(OC)c1C,10.49%
O=C(NCCCn1ccnn1)[C@H]1CC[C@@H](O)CC1,0.8152%
Cc1nn(C)c(C)c1CCC(=O)NC(CCO)C1CC1 (stereo not given),-4.802%
COCCN(C)C[C@@H]1CN(C(=O)CO)C[C@@H]1CO,7.272%
CC(OCc1ccccc1)C(=O)NCC(C)(C)C(N)=O (stereo not given),-13.5%
CCCc1ncc(C(=O)NCC(C)S(N)(=O)=O)s1 (stereo not given),15.45%
NCCc1ccc2[nH]ccc2c1,31.43%
CCOc1ccc(NC(=O)NC2CCN(C)CC2)cc1,0.5331%
CCC(=O)Nc1cc(C(N)=O)ccc1Cl,-4.625%
O=C1NCCCc2[nH]c(Cc3ccncc3)nc21,-25.04%
Cc1ccc(F)cc1C(=O)N[C@@H]1CCNC[C@H]1O,4.954%
CC(CN)c1ccc(S(C)(=O)=O)cc1 (stereo not given),3.561%
CN(CC(=O)N1CCCC1)C(=O)C1CCC1,2.025%
CC(C(=O)N1CCCC1)N1CCN(c2nc[nH]n2)CC1 (stereo not given),-4.756%
O=C(Nc1cc(Cl)c(Cl)cn1)C1COCCO1 (stereo not given),7.688%
OC(COCc1cccs1)CN1CCOCC1 (stereo not given),8.241%
CS(=O)(=O)N1CCSc2ccncc21,9.898%
NCC(=O)N1CCCC(CCc2ccc(F)cc2F)C1 (stereo not given),90.91%
CC(NC(=O)CSc1nnnn1C1CC1)c1cccs1 (stereo not given),48.68%
CC(C)CN1CCC(N)CC1,-2.58%
CN1CC(NC(=O)CCOc2ccc(Cl)cc2)CC1=O (stereo not given),6.978%
Cc1cc(F)cc(S(=O)(=O)NCCCN)c1,4.187%
NCC(CO)c1cccc(Cl)c1 (stereo not given),1.832%
Cc1cc(CN(C)S(=O)(=O)c2ncn(C)c2Cl)no1,-3.995%

The first 5 entries again:

* Cc1cc(C(=O)N(C)CCNS(C)(=O)=O)c(C)o1 : 4.167%
* CC(C)NC(=O)C(C)Oc1ccc(S(N)(=O)=O)cc1 (stereo not given) : 3.465%
* COc1ccc2[nH]c(CCCO)nc2c1 : -4.395%
* Cc1cscc1C(=O)NCCc1cncn1C : -3.284%
* COc1ccc(CCC(=O)NCCNC(C)=O)cc1 : -19.75%

From ChEMBL document CHEMBL3988442, “University of Dundee, Small-Polar-MMV Screening Library” (2021).